Some of the results follow. Shown are side measurements of this screen, not its main read-out; they come without a call. Most of these compounds were active or inconclusive in the main read-out, so they are no random draw. Words in brackets tell the shape of the fitted curve; partial curves, single points and poor fits give uncertain potencies.
Experiment: qHTS Assay for Lipid Storage Modulators in Drosophila S3 Cells;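 on cell number change: cells counted by Cell Tracker Red CMTPX staining in the red channel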
Conditions: BODIPY lipid droplet fluorescence, 18-24 h; for cell number change: measured here: cell count max response, cells fed with added oleic acid
Outline: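 Drosophila S3 cells loaded with oleic acid (400 uM, as added) and compounds at several concentrations; lipid droplets imaged by 488-nm laser-scanning cytometry, 500–530 nm intensity and object ratio to cell channel. Percent activity normalized to 20 uM Triacsin C.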

[1] = measured here: cell number channel AC50, cells fed with added oleic acid
[2] = measured here: lipid fluorescence (Fed channel) AC50, cells fed with added oleic acid

| SMILES | cell number change [%] | AC50 [1] | AC50 [2] |
| --- | --- | --- | --- |
| Nc1ccc(-c2nc(-c3ccccc3)nc3ccccc23)cc1 | -33.9 | 29.1 µM [falling, single point] |  |
| COc1ccccc1CNc1nc(C)c(C(C)=O)s1 | 23.5 |  |  |
| CCOc1ccccc1C1NC(=O)NC(C)=C1C(=O)OC1CCCC1C (configuration not stated) |  | 6.51 µM [rising, single point] |  |
| N/C(=N\OC(=O)COc1ccc(Cl)cc1)c1cccnc1 | 19.2 |  |  |
| COc1ccc(NC(=O)C2=CCN(S(=O)(=O)c3ccccc3)CC2)cc1OC | 7.57 |  | 3.66 µM [rising, full curve, poor fit] |
| CCC(=O)N(CCCN(C)C)c1nc(-c2cc(OC)ccc2OC)cs1 | -27.9 |  | 6.51 µM [falling, single point] |
| COc1ccc2[nH]c3c(NCCCN4CCCC4=O)ncnc3c2c1 | 13.9 |  | 16.4 µM [falling, partial curve] |
| Cc1ccccc1N(CC(=O)NCC1CCCO1)C(=O)CNS(=O)(=O)c1ccc(F)cc1 (configuration not stated) | 12.9 |  | 6.51 µM [falling, partial curve] |
| CCN(CC(=O)Nc1c(F)cccc1F)C(=O)c1cccnc1Sc1ccccc1 | -26.7 |  | 32.6 µM [falling, partial curve, poor fit] |
| COC(=O)c1[nH]c2ccccc2c1NC(=O)C(C)N1CCN(C(=O)c2ccco2)CC1 (configuration not stated) | -5.45 |  | 0.651 µM [falling, single point] |
| Cc1ccc(C(=O)OCC(=O)N(C)C2CCS(=O)(=O)C2)cc1S(=O)(=O)N1CCOCC1 (configuration not stated) | 0.24 |  | 3.66 µM [falling, single point] |
| O=C(O)COc1ccc(/C=N/Nc2nc(Nc3ccccc3)nc(N3CCCCC3)n2)cc1 |  | 0.00411 µM [rising, partial curve, poor fit] |  |
| Fc1ccc(Cn2nnc(-c3ccc(CN4CCOCC4)cc3)n2)cc1 | -4.3 |  | 0.517 µM [falling, single point] |
| O=S(=O)(c1ccc(C2=CSC3=NCCN23)cc1)N1CCOCC1 | -27.1 |  | 5.8 µM [falling, partial curve] |
| O=C(CSCc1c(Cl)cccc1Cl)NN=C1CCCC1 | 33.3 | 32.6 µM [rising, single point] |  |
| CN(C)C(=O)c1cc(Br)ccc1Cl |  |  | 29.1 µM [falling, single point] |
| CS(=O)(=O)NCCCNc1c(Cl)cccc1[N+](=O)[O-] | -21.7 |  | 0.00517 µM [falling, full curve, poor fit] |
| O=C(Nc1nncs1)c1ccc(N2C(=O)C3C4C=CC(C4)C3C2=O)cc1 (configuration not stated) | -30.8 | 0.13 µM [falling, full curve, poor fit] | 0.651 µM [falling, full curve, poor fit] |
| CN(C)c1ccc(/C=N/NC(N)=S)cc1[N+](=O)[O-] | 29.6 |  |  |
| COc1ccc(-n2c(C)nc3sc4c(c3c2=O)CCCC4)cc1 | 1.78 |  |  |
| CN1CCN(c2nc(C#N)cc(-c3ccccc3)n2)CC1 | 8.32 | 0.0651 µM [rising, partial curve, poor fit] |  |

| SMILES | cell number change [%] | AC50 [1] | AC50 [2] |
| --- | --- | --- | --- |
| N=c1c(C(=O)NC2CCCCC2)cc2c(=O)n3ccccc3nc2n1Cc1ccco1 | 29.5 |  |  |
| O=S(=O)(NCc1ccco1)c1ccc(Cl)nc1 | -8.22 |  | 9.2 µM [rising, partial curve, poor fit] |
| O=C(CCS(=O)(=O)c1cc2c(cc1Cl)NC(=O)CO2)NCCc1ccccc1 | -25.7 |  | 29.1 µM [rising, single point] |
| COc1ccc2c(c1)Cc1sc(NC(=O)c3cccnc3)nc1-2 |  |  | 2.31 µM [rising, partial curve] |
| Cc1ccc(NC(=O)CN(C)S(=O)(=O)c2ccc(Cl)s2)c(O)c1 | 5.57 | 0.731 µM [falling, single point] | 0.731 µM [falling, single point] |
| CCOC(=O)NC(=O)COC(=O)c1ccc(O)cc1 | -78.3 | 29.1 µM [falling, single point] | 29.1 µM [falling, partial curve] |
| CC(=O)Nc1ccc(NC(=O)C2CCN(C(=O)c3ccc([N+](=O)[O-])cc3)CC2)cc1 |  |  | 3.26 µM [falling, partial curve] |
| O=C1CC(c2ccccc2)Oc2cc(O)cc(O)c21 (configuration not stated) | -21.7 |  | 1.84 µM [falling, full curve] |
| CCOC(=O)c1cnc(-c2ccccc2)nc1C(F)(F)F | -1.13 |  | 0.116 µM [falling, full curve, poor fit] |
| CC(=O)N1CCN(C(=O)c2ccc(-c3ccccc3Cl)o2)CC1 | 6.25 |  | 0.00461 µM [rising, full curve, poor fit] |
| N=C1/C(=C\c2ccc(OC(=O)c3ccccc3)cc2)C(=O)N=C2SC(N3CCOCC3)=NN12 | 1.73 |  |  |
| Cc1ccc(S(=O)(=O)N2CCN(C(=O)c3c(-c4ccccc4)noc3C)CC2)cc1 |  |  | 0.116 µM [rising, single point] |
| N#Cc1c(NC(=O)c2cc(-n3cnnc3)ccc2Cl)sc2c1CCCC2 | 74.7 | 7.31 µM [rising, partial curve] |  |
| Nc1nnc(CC(=O)N2CCCCC2)s1 | -6.49 |  | 0.651 µM [falling, full curve, poor fit] |
| Cc1nn(CCCC(=O)Nc2ccccn2)c(C)c1[N+](=O)[O-] | -9.01 | 0.461 µM [rising, single point] |  |
| Cc1cc(C)cc(NS(=O)(=O)c2ccc3[nH]c(=O)[nH]c3c2)c1 | -73.9 | 20.6 µM [falling, single point] |  |
| O=C(O)CSC1=NC(=Nc2cccc(Cl)c2)C2(CCCCC2)N1c1ccccc1 | -10.4 |  | 0.058 µM [falling, full curve, poor fit] |
| Cc1cc(C(=O)NNC(=S)Nc2ccccc2C)cs1 | 38.4 | 5.8 µM [rising, full curve] | 5.17 µM [rising, partial curve] |
| CCn1nnnc1SCC(=O)N(C)C1CCS(=O)(=O)C1 (configuration not stated) | 19.4 |  | 2.31 µM [rising, full curve, poor fit] |
| CC(C)=CCN1CCN(Cc2cccc3c2OCO3)CC1CCO (configuration not stated) | 5.24 |  | 0.92 µM [falling, full curve, poor fit] |
| O=C(Nc1ccc(Br)cc1)c1csc(-c2ccncc2)n1 | -24 | 0.164 µM [falling, full curve, poor fit] |  |

| SMILES | cell number change [%] | AC50 [1] | AC50 [2] |
| --- | --- | --- | --- |
| CC1CN(C(=O)CS(=O)(=O)Cc2ccccc2)CC(C)O1 (configuration not stated) | -2.56 |  |  |
| O=C(Nc1nc2n(n1)C(c1ccccc1)C=C(c1ccccc1)N2)c1ccco1 (configuration not stated) | -15.1 |  | 6.51 µM [rising, partial curve, poor fit] |
| COc1ccccc1CNC(=O)CCc1cn(C)c2ccccc12 | 43.7 |  |  |
| CC(C)CCN(C(=O)c1ccc(N2CCCC2=O)cc1)c1c(N)n(Cc2ccccc2)c(=O)[nH]c1=O | 1.54 | 0.184 µM [falling, full curve, poor fit] | 4.11 µM [falling, partial curve, poor fit] |
| Cc1cccc(N2CCN(C(=O)c3nn(C)c4c3CS(=O)(=O)c3ccccc3-4)CC2)c1C | -9.7 |  | 29.1 µM [rising, single point] |
| Cc1ccc(NC(=O)CN(C)C(=O)Cn2ccsc2=N)cc1 | 15.7 |  | 29.1 µM [rising, single point] |
| O=C(COC(=O)c1ccc(Br)cc1)Nc1cccnc1Cl | 25.6 | 0.82 µM [rising, full curve, poor fit] | 0.58 µM [rising, full curve] |
| CCN(CC)S(=O)(=O)c1ccc(NN)nc1 | -3.52 |  | 20.6 µM [rising, single point] |
| COc1ccc(-n2cc(-c3ccccc3)c3c(N4CCN(CCO)CC4)ncnc32)cc1 |  |  | 6.51 µM [falling, single point] |
| CCc1ccc(C2(O)CC(C(F)(F)F)=NN2C(=O)Cc2ccc([N+](=O)[O-])cc2)cc1 (configuration not stated) | -45.7 | 29.1 µM [falling, single point] | 29.1 µM [falling, single point] |
| COc1ccccc1NNC(=O)C(O)(c1ccccc1)c1ccccc1 | 9.93 |  | 2.59 µM [rising, partial curve] |
| O=C(NC(=S)Nc1cccc(O)c1)c1ccco1 | 1.19 | 2.91 µM [falling, partial curve] |  |
| COC(=O)c1ccsc1NC(=O)CCS(=O)(=O)c1ccc(Cl)cc1 | 30.6 | 1.84 µM [rising, full curve] | 2.06 µM [rising, full curve] |
| CCc1ccc(NC(=O)C2CCCN(S(C)(=O)=O)C2)cc1 (configuration not stated) | -32.1 | 29.1 µM [falling, single point] |  |
| Cc1onc(-c2ccccc2)c1C(=O)NCc1cccs1 | 56.3 | 29.1 µM [rising, single point] |  |
| CC(=O)c1ccc(S(=O)(=O)NC2CC2)cc1 | 7.66 |  | 29.1 µM [rising, single point] |
| CCCN(c1nc(C)cc(OC)n1)S(=O)(=O)c1ccccc1 | 19 | 0.231 µM [falling, full curve, poor fit] |  |
| COCCCNC(=O)CCCOc1ccccc1 | 98.6 | 25.9 µM [rising, partial curve] |  |
| N#CCSc1nnc(-c2ccccc2)c(-c2ccccc2)n1 | -16.6 |  | 0.164 µM [rising, full curve, poor fit] |
| Fc1cccc(CNCC2CCCO2)c1 (configuration not stated) | -10.1 |  | 4.11 µM [rising, single point] |

Some of these compounds in order of number of heavy atoms, ascending:

| SMILES | cell number change [%] | AC50 [1] | AC50 [2] |
| --- | --- | --- | --- |
| Nc1nnc(CC(=O)N2CCCCC2)s1 | -6.49 |  | 0.651 µM [falling, full curve, poor fit] |
| O=S(=O)(NCc1ccco1)c1ccc(Cl)nc1 | -8.22 |  | 9.2 µM [rising, partial curve, poor fit] |
| O=C(NC(=S)Nc1cccc(O)c1)c1ccco1 | 1.19 | 2.91 µM [falling, partial curve] |  |
| COc1ccccc1CNc1nc(C)c(C(C)=O)s1 | 23.5 |  |  |
| Cc1cc(C(=O)NNC(=S)Nc2ccccc2C)cs1 | 38.4 | 5.8 µM [rising, full curve] | 5.17 µM [rising, partial curve] |
| CC1CN(C(=O)CS(=O)(=O)Cc2ccccc2)CC(C)O1 (configuration not stated) | -2.56 |  |  |
| Cc1nn(CCCC(=O)Nc2ccccn2)c(C)c1[N+](=O)[O-] | -9.01 | 0.461 µM [rising, single point] |  |
| Nc1ccc(-c2nc(-c3ccccc3)nc3ccccc23)cc1 | -33.9 | 29.1 µM [falling, single point] |  |
| COC(=O)c1ccsc1NC(=O)CCS(=O)(=O)c1ccc(Cl)cc1 | 30.6 | 1.84 µM [rising, full curve] | 2.06 µM [rising, full curve] |
| COc1ccc2[nH]c3c(NCCCN4CCCC4=O)ncnc3c2c1 | 13.9 |  | 16.4 µM [falling, partial curve] |
| CCOc1ccccc1C1NC(=O)NC(C)=C1C(=O)OC1CCCC1C (configuration not stated) |  | 6.51 µM [rising, single point] |  |
| CCc1ccc(C2(O)CC(C(F)(F)F)=NN2C(=O)Cc2ccc([N+](=O)[O-])cc2)cc1 (configuration not stated) | -45.7 | 29.1 µM [falling, single point] | 29.1 µM [falling, single point] |
| Cc1ccc(C(=O)OCC(=O)N(C)C2CCS(=O)(=O)C2)cc1S(=O)(=O)N1CCOCC1 (configuration not stated) | 0.24 |  | 3.66 µM [falling, single point] |
| Cc1cccc(N2CCN(C(=O)c3nn(C)c4c3CS(=O)(=O)c3ccccc3-4)CC2)c1C | -9.7 |  | 29.1 µM [rising, single point] |
| CC(C)CCN(C(=O)c1ccc(N2CCCC2=O)cc1)c1c(N)n(Cc2ccccc2)c(=O)[nH]c1=O | 1.54 | 0.184 µM [falling, full curve, poor fit] | 4.11 µM [falling, partial curve, poor fit] |

Reference: PubChem BioAssay AID2685 (National Center for Advancing Translational Sciences (NCATS), 2010)
